This note sets out measurements from paper PMC6321210.

Protein sequences, listed by entry. Tags and fused reporters are not part of them.
UniProt Q05397: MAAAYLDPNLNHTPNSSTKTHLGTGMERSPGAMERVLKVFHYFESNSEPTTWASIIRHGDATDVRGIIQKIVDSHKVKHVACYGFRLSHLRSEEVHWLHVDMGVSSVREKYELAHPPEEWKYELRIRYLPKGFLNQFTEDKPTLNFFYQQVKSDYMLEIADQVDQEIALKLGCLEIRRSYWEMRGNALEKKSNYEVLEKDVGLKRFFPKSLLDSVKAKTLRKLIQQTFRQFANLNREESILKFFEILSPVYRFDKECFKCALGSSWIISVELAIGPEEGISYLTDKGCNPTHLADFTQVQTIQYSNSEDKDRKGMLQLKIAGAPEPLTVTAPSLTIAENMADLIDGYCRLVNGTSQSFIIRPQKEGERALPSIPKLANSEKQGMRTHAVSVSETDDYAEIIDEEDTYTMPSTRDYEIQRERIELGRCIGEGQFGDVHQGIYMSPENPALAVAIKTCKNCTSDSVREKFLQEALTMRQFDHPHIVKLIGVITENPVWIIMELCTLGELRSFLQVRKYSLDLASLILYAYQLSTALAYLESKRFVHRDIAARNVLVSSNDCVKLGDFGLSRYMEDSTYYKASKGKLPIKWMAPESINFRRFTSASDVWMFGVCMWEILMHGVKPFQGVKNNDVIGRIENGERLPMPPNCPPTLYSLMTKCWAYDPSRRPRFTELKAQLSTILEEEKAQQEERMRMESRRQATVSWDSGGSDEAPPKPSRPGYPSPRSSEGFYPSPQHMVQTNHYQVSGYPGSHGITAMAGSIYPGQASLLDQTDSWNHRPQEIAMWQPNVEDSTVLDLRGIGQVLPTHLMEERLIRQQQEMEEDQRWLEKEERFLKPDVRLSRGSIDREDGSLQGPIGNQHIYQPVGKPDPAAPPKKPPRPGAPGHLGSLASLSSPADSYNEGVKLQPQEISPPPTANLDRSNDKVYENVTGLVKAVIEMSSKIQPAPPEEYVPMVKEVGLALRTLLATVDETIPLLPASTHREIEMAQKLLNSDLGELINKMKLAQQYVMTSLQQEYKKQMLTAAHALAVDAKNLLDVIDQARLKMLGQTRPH

These are yes or no findings as the source states them, for the method shown. In cells and extracts the contact can be indirect. Some results given as binding are weak or reduced against the parent protein; the word gives no strength.

This assay addresses T1, calbindin-D28k (rat) (UniProt P07171).
T1 sequence: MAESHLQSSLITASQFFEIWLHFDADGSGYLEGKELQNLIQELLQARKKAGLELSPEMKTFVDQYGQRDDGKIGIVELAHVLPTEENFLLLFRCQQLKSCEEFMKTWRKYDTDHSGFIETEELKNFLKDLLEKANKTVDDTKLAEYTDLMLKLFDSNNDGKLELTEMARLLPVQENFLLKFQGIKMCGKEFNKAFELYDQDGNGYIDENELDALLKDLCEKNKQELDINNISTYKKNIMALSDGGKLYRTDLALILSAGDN
In words: co-IP; lysate of SPC111-CB cells (150 mM NaCl, 1% Triton X-100, 50 mM Tris HCl, pH 8.0, protease and phosphatase inhibitors); CB precipitated with 2-4 ug rabbit anti-CB and uMACS protein A MicroBeads, 4 °C, 30 min; Western blot for FAK, septin 7 and paxillin; n = 3. On the technique in general: A western blot detects proteins with antibodies after separation by electrophoresis.

For “focal adhesion kinase (from UniProt Q05397 1-1052)”, the binding result is reported as “binds”.

B1: septin 7 (protein, UniProt Q16181 1-437)
chain: MSVSARSAAAEERSVNSSTMVAQQKNLEGYVGFANLPNQVYRKSVKRGFEFTLMVVGESGLGKSTLINSLFLTDLYSPEYPGPSHRIKKTVQVEQSKVLIKEGGVQLLLTIVDTPGFGDAVDNSNCWQPVIDYIDSKFEDYLNAESRVNRRQMPDNRVQCCLYFIAPSGHGLKPLDIEFMKRLHEKVNIIPLIAKADTLTPEECQQFKKQIMKEIQEHKIKIYEFPETDDEEENKLVKKIKDRLPLAVVGSNTIIEVNGKRVRGRQYPWGVAEVENGEHCDFTILRNMLIRTHMQDLKDVTNNVHYENYRSRKLAAVTYNGVDNNKNKGQLTKSPLAQMEEERREHVAKMKKMEMEMEQVFEMKVKEKVQKLKDSEAELQRRHEQMKKNLEAQHKELEEKRRQFEDEKANWEAQQRILEQQNSSRTLEKNKKKGKIF
Consider B1, for which the binding result is recorded as “binds”.
